PubChem BioAssay AID504764 – Drosophila RNAi Screening Center | 2011

Screen: 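Knock-downs that raise or lower a Notch target reporter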 (primary screen)
Cell system: Drosophila Kc167 cells
Knock-down reagent: long dsRNA against Drosophila genes
Duration: about 5 days (4 days dsRNA, then 24 h after transfection)
Challenge: transfection of constitutively active membrane-tethered Notch lacking the extracellular domain, read 24 h later
Read-out: 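Light from a Notch-responsive E(spl)m3 luciferase reporter under active Notch, with control-promoter and no-Notch reporter wells to normalise; raw counts from paired wells a and b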
Reading the numbers: induced reporter light, run 1, well a and induced reporter light, run 1, well b: higher = more light from the Notch target reporter with active Notch; control promoter light, run 1, well a and control promoter light, run 1, well b: higher = more light from the viral control promoter (cell number, transfection, viability); uninduced reporter light, run 1, well a: higher = more light from the Notch target reporter without active Notch
Call rule: 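Wells with low control signal or poorly matching duplicates excluded; duplicates averaged; per source plate, z beyond ±2 for induced/control log2 ratio or beyond ±1.8 for induced/uninduced marks a hit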
Calls: active = modifier hit (raised or lowered Notch signal); inactive = not a hit
The deposit covers about 22,000 reagents; below is a random part of those that have a named target and a result. Of all reagents, 403 (1.9%) are marked active. 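Unnormalised raw counts per well; ratio z-scores behind the hit calls and whether each hit raises or lowers signal are not deposited.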 Reagent sequences are not shown. Not stated in the record: the amount of reagent.

| Gene | PubChem SID | induced reporter light, run 1, well a | induced reporter light, run 1, well b | control promoter light, run 1, well a | control promoter light, run 1, well b | uninduced reporter light, run 1, well a | outcome |
| --- | --- | --- | --- | --- | --- | --- | --- |
| nAChRalpha5 (GeneID 34826) | SID104181152 | 1.02e5 | 73790 | 94420 | 86165 | 10100 | inactive |
| nAChRalpha5 (GeneID 34826) | SID104181738 | 1.45e5 | 1.63e5 | 1.89e5 | 1.84e5 | 13910 | inactive |
| nAChRalpha5 (GeneID 34826) | SID104181739 | 1.31e5 | 1.44e5 | 1.17e5 | 1.26e5 | 12555 | inactive |
| Gem3 (GeneID 39195) | SID104190936 | 2.48e5 | 1.86e5 | 3.30e5 | 1.96e5 | 11560 | inactive |
| Pym (GeneID 37780) | SID104201946 | – | – | – | – | – | inactive |
| RhoGAP68F (GeneID 39385) | SID104190509 | 1.27e5 | 98215 | 81020 | 40430 | 11455 | inactive |
| CARPB (GeneID 31915) | SID104198229 | 1.89e5 | 1.98e5 | 2.19e5 | 1.86e5 | 13715 | inactive |
| CARPB (GeneID 31915) | SID104198230 | 1.14e5 | 1.05e5 | 1.82e5 | 1.52e5 | 8138 | inactive |
| bnk (GeneID 43687) | SID104196704 | 92045 | 90325 | 1.45e5 | 1.38e5 | 9270 | inactive |
| VhaAC45 (GeneID 35944) | SID104186850 | 1.17e5 | 1.37e5 | 1.64e5 | 1.87e5 | 10270 | active |
| BCAS2 (GeneID 43348) | SID104195485 | 1.80e5 | 1.83e5 | 2.14e5 | 2.04e5 | 13965 | inactive |
| Eaat2 (GeneID 33247) | SID104179824 | 95525 | 70875 | 1.76e5 | 1.35e5 | 7735 | active |
| Eaat2 (GeneID 33247) | SID104180541 | 2.06e5 | 1.91e5 | 1.97e5 | 2.34e5 | 19520 | inactive |
| sona (GeneID 37762) | SID104183881 | 1.88e5 | 1.48e5 | 1.28e5 | 1.32e5 | 12445 | inactive |
| sona (GeneID 37762) | SID104184366 | 92205 | 83895 | 47390 | 49840 | 6365 | inactive |
| sona (GeneID 37762) | SID104184367 | 1.90e5 | 1.71e5 | 1.65e5 | 1.39e5 | 10982 | inactive |
| hook (GeneID 35169) | SID104183337 | 2.09e5 | 1.82e5 | 1.81e5 | 1.79e5 | 14515 | inactive |
| Elp3 (GeneID 33649) | SID104180240 | 1.22e5 | 97365 | 1.46e5 | 1.23e5 | 7745 | inactive |
| CG6813 (GeneID 41396) | SID104195914 | 89035 | 96540 | 74400 | 56950 | 6060 | inactive |
| l(2)gl (GeneID 33156) | SID104180617 | 1.85e5 | 1.63e5 | 2.67e5 | 3.08e5 | 13920 | inactive |
| Fhos (GeneID 39004) | SID104188735 | 2.62e5 | 2.33e5 | 2.36e5 | 2.19e5 | 14100 | inactive |
| Fhos (GeneID 39004) | SID104190337 | 1.18e5 | 89695 | 80285 | 37585 | 8620 | inactive |
| Fhos (GeneID 39004) | SID104190338 | 1.53e5 | 1.30e5 | 78385 | 30435 | 8855 | inactive |
| Fhos (GeneID 39004) | SID104190339 | 1.98e5 | 1.94e5 | 1.78e5 | 1.23e5 | 8315 | active |
| Irp-1A (GeneID 42689) | SID104196511 | 1.70e5 | 1.69e5 | 2.79e5 | 2.18e5 | 15965 | inactive |
| CG9426 (GeneID 34719) | SID104183011 | 1.44e5 | 1.58e5 | 1.43e5 | 1.37e5 | 11700 | inactive |
| dachs (GeneID 34179) | SID104181864 | 2.09e5 | 2.26e5 | 2.65e5 | 2.93e5 | 17635 | inactive |
| dachs (GeneID 34179) | SID104181983 | 1.73e5 | 2.26e5 | 1.04e5 | 1.44e5 | 26740 | inactive |
| CG34460 (GeneID 5740316) | SID104186766 | 92675 | 1.08e5 | 1.07e5 | 1.12e5 | 10728 | inactive |
| CG8563 (GeneID 38826) | SID104190788 | 1.73e5 | 1.52e5 | 1.84e5 | 1.60e5 | 8750 | inactive |
| Pkd2 (GeneID 34651) | SID104182754 | 1.92e5 | 2.17e5 | 2.10e5 | 1.94e5 | 18000 | inactive |
| Alas (GeneID 37815) | SID104183836 | 2.13e5 | 2.04e5 | 1.59e5 | 1.76e5 | 17130 | inactive |
| POSH (GeneID 36990) | SID104187291 | 91100 | 75755 | 1.19e5 | 90255 | 8192 | inactive |
| CG12496 (GeneID 31226) | SID104198394 | 1.26e5 | 1.01e5 | 2.31e5 | 2.31e5 | 9800 | inactive |
| CG8160 (GeneID 36701) | SID104186878 | 1.21e5 | 1.26e5 | 1.28e5 | 1.52e5 | 8215 | inactive |
| eIF3c (GeneID 37005) | SID104186697 | 9275 | 7095 | 8195 | 8395 | 905 | inactive |
| slam (GeneID 33890) | SID104183032 | 1.84e5 | 1.64e5 | 2.21e5 | 2.23e5 | 9795 | inactive |
| Svil (GeneID 38306) | SID104187773 | 2.52e5 | 2.02e5 | 2.16e5 | 2.06e5 | 16665 | inactive |
| Svil (GeneID 38306) | SID104188088 | 86220 | 83040 | 1.46e5 | 1.69e5 | 7885 | inactive |
| Svil (GeneID 38306) | SID104188124 | 85660 | 99260 | 1.21e5 | 1.39e5 | 8535 | inactive |
| Svil (GeneID 38306) | SID104188125 | 7435 | 5735 | 14160 | 12805 | 2040 | inactive |
| Svil (GeneID 38306) | SID104188286 | 95835 | 1.29e5 | 1.40e5 | 1.14e5 | 7240 | inactive |
| Diap2 (GeneID 36748) | SID104187236 | 1.08e5 | 1.32e5 | 2.10e5 | 1.75e5 | 9650 | inactive |
| pll (GeneID 43283) | SID104196818 | 2.06e5 | 2.01e5 | 2.35e5 | 2.15e5 | 12195 | inactive |
| fmt (GeneID 38714) | SID104189509 | 42655 | 50890 | 49200 | 13165 | 6985 | active |
| CG7239 (GeneID 33809) | SID104182830 | 9165 | 9270 | 8350 | 8255 | 2875 | inactive |
| CG32191 (GeneID 317903) | SID104190314 | 1.76e5 | 1.68e5 | 2.50e5 | 1.66e5 | 8180 | inactive |
| Prosalpha4T1 (GeneID 42457) | SID104196592 | 1.48e5 | 1.34e5 | 1.70e5 | 1.62e5 | 8890 | inactive |
| CaBP1 (GeneID 34976) | SID104181776 | 1.99e5 | 2.34e5 | 1.96e5 | 1.85e5 | 17670 | inactive |
| Adar (GeneID 31130) | SID104197517 | 1.07e5 | 1.18e5 | 1.54e5 | 1.77e5 | 6505 | inactive |
| CG7987 (GeneID 41768) | SID104196149 | 97760 | 1.10e5 | 74450 | 73965 | 9300 | inactive |
| CG4709 (GeneID 34324) | SID104182564 | 2.80e5 | 2.21e5 | 2.18e5 | 1.99e5 | 17175 | inactive |
| Gdap1 (GeneID 38597) | SID104190229 | 2.49e5 | 1.84e5 | 1.69e5 | 1.65e5 | 10020 | inactive |
| Hexo2 (GeneID 31808) | SID104198463 | 1.39e5 | 1.47e5 | 2.34e5 | 2.36e5 | 11325 | inactive |
| Tim13 (GeneID 39327) | SID104189640 | 1.55e5 | 1.20e5 | 1.86e5 | 1.82e5 | 8210 | inactive |
| CG4631 (GeneID 34988) | SID104182558 | 1.47e5 | 1.78e5 | 1.57e5 | 1.24e5 | 13110 | inactive |
| EloC (GeneID 37237) | SID104187215 | 68585 | 65115 | 83755 | 80100 | 5888 | inactive |
| CG14043 (GeneID 33714) | SID104182160 | 1.51e5 | 1.07e5 | 1.31e5 | 1.18e5 | 7925 | inactive |
| Pcmt (GeneID 40668) | SID104192155 | 82180 | 1.29e5 | 97135 | 91280 | 6665 | inactive |
| CG14302 (GeneID 42252) | SID104194573 | 2.09e5 | 1.56e5 | 1.57e5 | 1.41e5 | 11785 | inactive |
| ECSIT (GeneID 40732) | SID104192140 | 40590 | 58215 | 52315 | 36570 | 5330 | inactive |
| CG33489 (GeneID 2768971) | SID104190380 | 91810 | 1.29e5 | 1.42e5 | 1.40e5 | 7845 | inactive |
| emp (GeneID 37999) | SID104183811 | 1.73e5 | 2.04e5 | 2.60e5 | 2.59e5 | 11970 | inactive |
| emp (GeneID 37999) | SID104184475 | 1.26e5 | 1.15e5 | 90025 | 1.07e5 | 6170 | active |
